This experiment deals with T1, GST-annexin A6 fusion protein, full length (UniProt P48037).
T1 sequence: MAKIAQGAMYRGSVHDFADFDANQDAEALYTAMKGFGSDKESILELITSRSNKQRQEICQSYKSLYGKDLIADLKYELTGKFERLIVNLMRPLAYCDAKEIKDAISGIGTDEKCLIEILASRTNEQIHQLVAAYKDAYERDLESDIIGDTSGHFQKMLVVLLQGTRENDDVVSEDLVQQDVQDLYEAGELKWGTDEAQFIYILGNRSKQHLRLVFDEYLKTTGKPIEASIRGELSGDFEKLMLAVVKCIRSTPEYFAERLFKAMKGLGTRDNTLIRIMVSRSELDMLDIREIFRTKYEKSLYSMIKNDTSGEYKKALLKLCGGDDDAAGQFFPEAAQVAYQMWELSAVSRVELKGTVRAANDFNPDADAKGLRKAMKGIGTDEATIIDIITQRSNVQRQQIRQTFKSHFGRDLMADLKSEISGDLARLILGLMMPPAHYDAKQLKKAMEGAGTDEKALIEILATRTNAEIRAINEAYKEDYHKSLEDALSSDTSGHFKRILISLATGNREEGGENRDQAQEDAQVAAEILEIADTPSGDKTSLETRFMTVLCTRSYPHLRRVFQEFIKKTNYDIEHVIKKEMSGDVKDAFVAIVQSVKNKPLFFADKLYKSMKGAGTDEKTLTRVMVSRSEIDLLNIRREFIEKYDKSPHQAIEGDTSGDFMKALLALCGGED
In words: affinity purification with mass spectrometry; GST-AnxA6 on glutathione-sepharose 4B beads incubated with 1.5 mg NP-40 solubilised rat whole heart homogenate, 4°C, 5 hours; bound proteins eluted, separated by 12% SDS-PAGE, LC MS/MS; only the target purified.

No constants are given. Whether binding was seen depends on the method and setting. In cells and extracts the contact can be indirect. These calls come from enrichment with a bait or labelling near it, and not all partners need be listed. Tags and fused reporters may be left off the sequences shown.

As to “sarcomeric alpha-actinin (rat (endogenous in heart homogenate))”, the binding entry is on record as “binds”.

Source of the values: publication PMC3037912.
